Values of other authors as cited in patent US9375525B2, “Modular extracorporeal systems and methods for treating blood-borne diseases” (Somerset Group Enterprises, Inc., priority 2012, dated 2016).
At least one structure is not confirmed: it was looked up by name or label, or the drawing left a doubt.

Test system: pathogens
Conditions: bactericidal or static

Q: For `COc1c(N2C[C@@H]3CCCN[C@@H]3C2)c(F)cc2c(=O)c(C(=O)O)cn(C3CC3)c12` [Moxifloxacin], which activity is on record?
A: The activity was “bactericidal”.

Q: Which activity does the source give for `CN(C)c1ccc(O)c2c1C[C@H]1C[C@H]3[C@H](N(C)C)C(O)=C(C(N)=O)C(=O)[C@@]3(O)C(O)=C1C2=O` [Minecycline] here?
A: Its activity is “static”.

Q: Which activity does the source give for `C[C@H]1COc2c(N3CCN(C)CC3)c(F)cc3c(=O)c(C(=O)O)cn1c23` [Levofloxacin] here?
A: The activity was “bactericidal”.
